# Measurements reported in PubChem BioAssay AID540256 (National Center for Advancing Translational Sciences (NCATS), 2011).
# Among all 300,000 compounds or so, about 3,700 (1.2%) were called active. The inconclusive results got no clear call from the source; some entries with a clear call stand among them for comparison. The call rests on the fitted dose curve; tested in HEK293 cells. A potency beside an inconclusive call is a rough fit, not a confirmed value.
# Assay: qHTS for Inhibitors of binding or entry into cells for Lassa Virus; further: nearly all actives have a fitted effect of over 50% in size
# Conditions: Lassa virus pseudotype entry inhibition, cell reporter; activity change, negative = inhibition: at 37.9 µM (top of the series) unless noted
# On the % scale 0 is the no-effect control and ±100 the full control effect; potency means the concentration at half of the fitted maximal effect.
SMILES,Potency,"activity change, negative = inhibition"
O=C1c2cc(S(=O)(=O)N(CCO)CCO)ccc2-c2ccc(S(=O)(=O)N(CCO)CCO)cc21,"inconclusive: 3.55 µM [inhibitor, single point]",–
COc1ccc(S(=O)(=O)N(Cc2nc(-c3ccc(C)cc3)no2)C2CCCCC2)cc1,–,inactive: -23.3% [at 46.1 µM]
COc1ccccc1C(CNC(=O)C(C)Oc1ccc(Br)cc1)N1CCCC1 (stereo not drawn),"inconclusive: 35.5 µM [inhibitor, single point]",–
COc1ccc(-c2noc(C3CCCN(C(=O)CCc4ccccc4)C3)n2)cc1 (stereo not drawn),–,inactive: -21.3%
CN1C(=O)/C(=C/c2ccco2)SC1=Nc1ccc(N2CCOCC2)cc1,"inconclusive: 9.2 µM [activator, partial curve, poor fit]",–
COc1cc2c(cc1OC)C(C(=O)NCc1cccnc1)C(c1cccnc1)N(C)C2=O (stereo not drawn),"inconclusive: 23.1 µM [activator, partial curve, poor fit]",–
O=C(CCc1c[nH]c2ccccc12)N[C@@H](Cc1c[nH]c2ccc(O)cc12)C(=O)O,–,inactive: -1.49% [at 46.1 µM]
COc1ccc(/C=N/NC(=O)c2ccoc2C)cc1COc1ccc(Cl)cc1,"inconclusive: 35.5 µM [inhibitor, single point]",–
CC(=O)c1ccc(N2C(=O)CC(N3CCN(S(=O)(=O)c4cc(C)ccc4C)CC3)C2=O)cc1 (stereo not drawn),–,inactive: -1.97% [at 46.1 µM]
O=C(CN1CCN(c2ccc(O)cc2)CC1)Nc1cc(S(=O)(=O)N2CCCCC2)ccc1Cl,–,inactive: -26.1%
CCN(CC)CCCNC(=O)c1ccc(OCC(=O)Nc2ccccc2C(F)(F)F)c(OC)c1,"inconclusive: 10 µM [inhibitor, partial curve, poor fit]",–
Cc1ccc(-c2nc(CCNC(=O)C(=O)Nc3ccc(C)c(C)c3)cs2)cc1,"inconclusive: 3.16 µM [activator, single point]",–
CC(=O)N(CCC(Cc1ccccc1)c1ccc2c(c1)OCO2)Cc1ccc(Cl)cc1 (stereo not drawn),"inconclusive: 11.2 µM [inhibitor, partial curve, poor fit]",–
COc1cc(/C=N/Nc2ccccn2)ccc1O,"inconclusive: 35.5 µM [inhibitor, single point]",–
Cn1c(=O)c2c(nc(NC3CCCCC3)n2CC(O)COc2ccccc2)n(C)c1=O (stereo not drawn),"inconclusive: 10 µM [inhibitor, partial curve]",–
O=C(/C=C/Nc1ccc(F)cc1F)c1cccs1,active: 1.41 µM,–
Cc1cc(S(=O)(=O)NCc2ccncc2)c(C)cc1Br,"inconclusive: 11.2 µM [inhibitor, single point]",–
O=C1[C@@H]2CSC(c3ccc(F)cc3)N2C(=O)N1c1ccc(Cl)cc1 (stereo partly drawn),–,inactive: -4.62% [at 46.1 µM]

# Three compounds from above, arranged by heavy-atom count, falling.
SMILES,Potency,"activity change, negative = inhibition"
Cn1c(=O)c2c(nc(NC3CCCCC3)n2CC(O)COc2ccccc2)n(C)c1=O (stereo not drawn),"inconclusive: 10 µM [inhibitor, partial curve]",–
CN1C(=O)/C(=C/c2ccco2)SC1=Nc1ccc(N2CCOCC2)cc1,"inconclusive: 9.2 µM [activator, partial curve, poor fit]",–
O=C(/C=C/Nc1ccc(F)cc1F)c1cccs1,active: 1.41 µM,–
